PMC7642295
Results are given in words; binding and its absence hold for the method and conditions named. In cells and extracts the contact can be indirect. Here binding means that the protein was enriched with, or labelled near, the bait; the list need not be complete. Blank lines part the entries; values can stand above or below the molecule they belong to.

Protein sequences, listed by entry. Tags and fused reporters are not part of them. Lines headed by an entry give the natural chain unless they say otherwise; changes in a name come on top. Chains listed by the source or under a name are the forms on record and can include a tag or linker. Residues count along the entry.
UniProt Q9Y238: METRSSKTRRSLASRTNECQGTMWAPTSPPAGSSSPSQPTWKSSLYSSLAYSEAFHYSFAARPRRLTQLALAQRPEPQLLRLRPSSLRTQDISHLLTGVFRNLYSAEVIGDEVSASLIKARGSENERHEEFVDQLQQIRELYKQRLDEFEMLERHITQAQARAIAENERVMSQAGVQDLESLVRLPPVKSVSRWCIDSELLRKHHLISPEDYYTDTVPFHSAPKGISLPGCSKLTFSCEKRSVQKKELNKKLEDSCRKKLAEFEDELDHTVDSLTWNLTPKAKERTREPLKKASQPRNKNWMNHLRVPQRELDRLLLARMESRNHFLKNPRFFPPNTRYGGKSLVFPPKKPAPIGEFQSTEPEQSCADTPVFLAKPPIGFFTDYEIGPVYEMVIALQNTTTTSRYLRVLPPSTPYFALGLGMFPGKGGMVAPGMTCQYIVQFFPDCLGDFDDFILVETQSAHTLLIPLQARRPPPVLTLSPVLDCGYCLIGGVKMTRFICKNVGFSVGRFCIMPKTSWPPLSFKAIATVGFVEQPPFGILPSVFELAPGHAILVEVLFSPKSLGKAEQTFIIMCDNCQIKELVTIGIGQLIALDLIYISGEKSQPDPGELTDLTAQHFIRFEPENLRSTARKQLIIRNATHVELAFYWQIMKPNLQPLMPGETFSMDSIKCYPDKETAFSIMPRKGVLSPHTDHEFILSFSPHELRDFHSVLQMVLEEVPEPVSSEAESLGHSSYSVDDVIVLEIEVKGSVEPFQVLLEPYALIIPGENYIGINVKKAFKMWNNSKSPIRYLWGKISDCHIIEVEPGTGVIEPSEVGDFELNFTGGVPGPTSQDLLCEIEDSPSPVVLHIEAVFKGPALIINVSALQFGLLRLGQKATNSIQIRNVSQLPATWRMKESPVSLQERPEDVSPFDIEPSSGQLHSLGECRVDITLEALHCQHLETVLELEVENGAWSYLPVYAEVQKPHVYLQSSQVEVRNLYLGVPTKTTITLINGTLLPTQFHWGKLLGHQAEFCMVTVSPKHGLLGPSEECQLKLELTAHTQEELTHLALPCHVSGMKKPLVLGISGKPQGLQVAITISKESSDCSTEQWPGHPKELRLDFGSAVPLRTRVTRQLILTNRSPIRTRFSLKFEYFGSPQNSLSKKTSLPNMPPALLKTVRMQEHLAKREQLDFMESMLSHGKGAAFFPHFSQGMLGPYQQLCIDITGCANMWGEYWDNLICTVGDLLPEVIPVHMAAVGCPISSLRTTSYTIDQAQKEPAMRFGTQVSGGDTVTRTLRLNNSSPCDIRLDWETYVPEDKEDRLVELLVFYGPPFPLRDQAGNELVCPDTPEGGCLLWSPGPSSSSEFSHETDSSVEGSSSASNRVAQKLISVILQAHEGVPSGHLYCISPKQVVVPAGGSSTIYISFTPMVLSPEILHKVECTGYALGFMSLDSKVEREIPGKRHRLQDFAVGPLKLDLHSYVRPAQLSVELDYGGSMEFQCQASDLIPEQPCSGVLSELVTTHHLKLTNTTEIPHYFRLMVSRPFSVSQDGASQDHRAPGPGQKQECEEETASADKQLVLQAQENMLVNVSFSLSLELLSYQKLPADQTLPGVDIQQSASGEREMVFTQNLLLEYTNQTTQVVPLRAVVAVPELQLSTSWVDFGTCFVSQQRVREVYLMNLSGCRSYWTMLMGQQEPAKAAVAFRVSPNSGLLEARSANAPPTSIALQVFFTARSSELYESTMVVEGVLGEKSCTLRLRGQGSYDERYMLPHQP
UniProt P04406, residues 43-335: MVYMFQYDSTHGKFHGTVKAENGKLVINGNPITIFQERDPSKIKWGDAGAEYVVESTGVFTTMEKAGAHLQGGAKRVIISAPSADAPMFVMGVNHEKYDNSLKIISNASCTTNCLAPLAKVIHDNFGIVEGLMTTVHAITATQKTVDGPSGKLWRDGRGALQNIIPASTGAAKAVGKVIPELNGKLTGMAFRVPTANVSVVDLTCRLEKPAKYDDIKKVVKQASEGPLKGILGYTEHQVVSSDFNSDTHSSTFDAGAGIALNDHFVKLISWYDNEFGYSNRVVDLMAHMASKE
UniProt Q71U36, residues 36-451: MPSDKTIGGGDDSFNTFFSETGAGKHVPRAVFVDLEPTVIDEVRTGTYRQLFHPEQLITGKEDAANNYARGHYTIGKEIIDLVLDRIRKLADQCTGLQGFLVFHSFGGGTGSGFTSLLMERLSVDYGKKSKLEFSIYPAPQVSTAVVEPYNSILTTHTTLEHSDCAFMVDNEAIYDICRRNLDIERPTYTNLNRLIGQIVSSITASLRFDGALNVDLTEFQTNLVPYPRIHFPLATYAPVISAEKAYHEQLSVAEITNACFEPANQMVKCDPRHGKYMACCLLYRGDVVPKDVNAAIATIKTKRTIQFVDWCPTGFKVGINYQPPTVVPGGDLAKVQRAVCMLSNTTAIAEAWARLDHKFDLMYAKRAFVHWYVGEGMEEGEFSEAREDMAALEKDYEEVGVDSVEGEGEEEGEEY
UniProt P07437: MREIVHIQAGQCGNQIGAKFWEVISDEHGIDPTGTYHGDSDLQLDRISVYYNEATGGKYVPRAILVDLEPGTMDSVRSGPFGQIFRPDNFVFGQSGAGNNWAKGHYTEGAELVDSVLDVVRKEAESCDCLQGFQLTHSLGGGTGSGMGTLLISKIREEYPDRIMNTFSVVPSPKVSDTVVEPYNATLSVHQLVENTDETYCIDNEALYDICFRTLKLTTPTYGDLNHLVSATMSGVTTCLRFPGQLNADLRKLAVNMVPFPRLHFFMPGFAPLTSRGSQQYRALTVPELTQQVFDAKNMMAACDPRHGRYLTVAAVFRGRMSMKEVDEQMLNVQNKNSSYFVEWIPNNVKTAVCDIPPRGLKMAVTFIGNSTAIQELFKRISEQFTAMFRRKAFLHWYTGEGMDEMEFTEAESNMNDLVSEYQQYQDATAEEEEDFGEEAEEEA
UniProt Q9BVA1: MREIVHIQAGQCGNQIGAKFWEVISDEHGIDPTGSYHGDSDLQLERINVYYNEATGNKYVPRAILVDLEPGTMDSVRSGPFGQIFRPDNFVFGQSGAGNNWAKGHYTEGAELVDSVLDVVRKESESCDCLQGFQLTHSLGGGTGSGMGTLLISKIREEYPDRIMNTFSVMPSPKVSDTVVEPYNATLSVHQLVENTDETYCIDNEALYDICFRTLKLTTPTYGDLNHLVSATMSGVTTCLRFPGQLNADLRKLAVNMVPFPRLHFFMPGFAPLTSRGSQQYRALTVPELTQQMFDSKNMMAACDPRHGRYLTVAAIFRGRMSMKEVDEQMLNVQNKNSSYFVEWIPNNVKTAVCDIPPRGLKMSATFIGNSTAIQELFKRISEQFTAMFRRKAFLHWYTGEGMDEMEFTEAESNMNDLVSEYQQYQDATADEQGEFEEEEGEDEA
UniProt P68371: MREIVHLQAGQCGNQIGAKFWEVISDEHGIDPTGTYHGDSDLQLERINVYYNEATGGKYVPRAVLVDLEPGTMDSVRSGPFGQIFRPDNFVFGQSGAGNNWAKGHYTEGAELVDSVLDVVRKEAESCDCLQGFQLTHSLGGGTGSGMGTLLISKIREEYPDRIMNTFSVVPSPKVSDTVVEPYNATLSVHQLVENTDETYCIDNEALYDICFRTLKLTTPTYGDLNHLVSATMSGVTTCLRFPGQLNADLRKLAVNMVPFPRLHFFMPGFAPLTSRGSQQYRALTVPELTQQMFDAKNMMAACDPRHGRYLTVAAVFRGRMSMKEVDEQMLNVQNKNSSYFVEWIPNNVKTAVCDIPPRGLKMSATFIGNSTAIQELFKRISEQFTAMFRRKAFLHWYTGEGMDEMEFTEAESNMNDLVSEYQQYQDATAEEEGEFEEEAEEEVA
ruvB-like 1 isoform 2 (Q9Y265-2, form named): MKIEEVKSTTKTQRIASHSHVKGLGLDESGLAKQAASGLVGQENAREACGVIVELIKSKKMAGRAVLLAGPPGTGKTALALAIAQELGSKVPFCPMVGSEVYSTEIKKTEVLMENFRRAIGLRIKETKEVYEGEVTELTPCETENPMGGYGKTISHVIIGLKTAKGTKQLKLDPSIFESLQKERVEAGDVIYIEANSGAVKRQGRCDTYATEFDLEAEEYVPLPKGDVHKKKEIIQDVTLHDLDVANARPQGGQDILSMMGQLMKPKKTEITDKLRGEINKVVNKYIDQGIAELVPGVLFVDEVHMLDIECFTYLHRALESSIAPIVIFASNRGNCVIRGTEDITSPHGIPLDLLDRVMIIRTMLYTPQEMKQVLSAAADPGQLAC
UniProt Q9BUF5: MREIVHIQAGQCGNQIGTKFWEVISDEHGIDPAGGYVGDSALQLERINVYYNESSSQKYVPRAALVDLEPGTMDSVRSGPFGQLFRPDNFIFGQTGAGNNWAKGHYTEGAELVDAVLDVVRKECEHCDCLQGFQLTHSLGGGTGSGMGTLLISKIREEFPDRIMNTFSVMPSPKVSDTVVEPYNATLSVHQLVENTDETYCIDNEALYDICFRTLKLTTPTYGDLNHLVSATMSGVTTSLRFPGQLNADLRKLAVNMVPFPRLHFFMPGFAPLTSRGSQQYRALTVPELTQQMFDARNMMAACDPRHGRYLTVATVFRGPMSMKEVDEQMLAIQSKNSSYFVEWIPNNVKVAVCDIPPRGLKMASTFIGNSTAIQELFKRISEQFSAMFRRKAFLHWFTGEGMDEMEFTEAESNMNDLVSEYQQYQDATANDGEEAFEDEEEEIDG

Target: 3 × FLAG-tagged human DLEC1 (deleted in lung and esophageal cancer 1) (human) (UniProt Q9Y238)
Assay: affinity purification with mass spectrometry; 3 × FLAG-hDLEC1 or empty vector transiently expressed in HEK293F; 20 mg lysate in 1% Triton X-100 buffer with anti-FLAG antibody agarose beads overnight at 4 °C; bands enriched on the CBB-stained gel cut out and identified by LC-MS/MS

Molecule: Glyceraldehyde-3-phosphate dehydrogenase isoform 2 (from UniProt P04406-2 1-293) (enzyme)
- binding: binds

Molecule: Heat shock 70 kDa protein 1A (from UniProt P0DMV8-1 1-641)
- binding: binds

Molecule: T-complex protein 1 subunit epsilon isoform a (from UniProt P48643-1 1-541)
- binding: binds

Molecule: Tubulin alpha-1A chain isoform 2 (from UniProt Q71U36-2 1-416)
- binding: binds

Molecule: Tubulin alpha-1B chain (from UniProt P68363-1 1-451)
- binding: binds

Molecule: Tubulin beta chain isoform b (from UniProt P07437 1-444)
- binding: binds

Molecule: Tubulin beta-2B chain (from UniProt Q9BVA1 1-445)
- binding: binds

Molecule: Tubulin beta-3 chain isoform 1 (from UniProt Q13509-1 1-450)
- binding: binds

Molecule: Tubulin beta-4B chain (from UniProt P68371 1-445)
- binding: binds

Molecule: ruvB-like 1 isoform 2 (from UniProt Q9Y265-2 1-386)
- binding: binds

B1: T-complex protein 1 subunit beta isoform 2 (protein, UniProt P78371-2 1-488)
chain: MDKILLSSGRDASLMVTNDGATILKNIGVDNPAAKVLVDMSRVQDDEVGDGTTSVTVLAAELLREAESLIAKKIHPQTIIAGWREATKAAREALLSSAVDHGSDEVKFRQDLMNIAGTTLSSKLLTHHKDHFTKLAVEAVLRLKGSGNLEAIHIIKKLGGSLADSYLDEGFLLDKKIGVNQPKRIENAKILIANTGMDTDKIKIFGSRVRVDSTAKVAEIEHAEKEKMKEKVERILKHGINCFINRQLIYNYPEQLFGAAGVMAIEHADFAGVERLALVTGGEIASTFDHPELVKLGSCKLIEEVMIGEDKLIHFSGVALGEACTIVLRGATQQILDEAERSLHDALCVLAQTVKDSRTVYGGGCSEMLMAHAVTQLANRTPGKEAVAMESYAKALRMLPTIIADNAGYDSADLVAQLRAAHSEGNTTAGLDMREGTIGDMAILGITESFQVKRQVLLSAAEAAEVILRVDNIIKAAPRKRVPDHHPC
- binding: binds

The remaining lines, values ahead:

- binding: binds
Molecule: T-complex protein 1 subunit theta isoform 1 (from UniProt P50990-1 1-548)

- binding: binds
Molecule: T-complex protein 1 subunit zeta isoform a (from UniProt P40227-1 1-531)

- binding: binds
Molecule: Tubulin beta-6 chain isoform 1 (from UniProt Q9BUF5 1-446)

- binding: binds
B2: Protein phosphatase 1B isoform 1 (enzyme, UniProt O75688-1 1-479)
chain: MGAFLDKPKTEKHNAHGAGNGLRYGLSSMQGWRVEMEDAHTAVVGIPHGLEDWSFFAVYDGHAGSRVANYCSTHLLEHITTNEDFRAAGKSGSALELSVENVKNGIRTGFLKIDEYMRNFSDLRNGMDRSGSTAVGVMISPKHIYFINCGDSRAVLYRNGQVCFSTQDHKPCNPREKERIQNAGGSVMIQRVNGSLAVSRALGDYDYKCVDGKGPTEQLVSPEPEVYEILRAEEDEFIILACDGIWDVMSNEELCEYVKSRLEVSDDLENVCNWVVDTCLHKGSRDNMSIVLVCFSNAPKVSDEAVKKDSELDKHLESRVEEIMEKSGEEGMPDLAHVMRILSAENIPNLPPGGGLAGKRNVIEAVYSRLNPHRESDGASDEAEESGSQGKLVEALRQMRINHRGNYRQLLEEMLTSYRLAKVEGEESPAEPAATATSSNSDAGNPVTMQESHTESESGLAELDSSNEDAGTKMSGEKI

- binding: binds
B3: T-complex protein 1 subunit gamma isoform c (protein, UniProt P49368-2 1-507)
chain: MMGHRPVLVLSQNTKRESGRKVQSGNINAAKIQVQHPAAKSMIEISRTQDEEVGDGTTSVIILAGEMLSVAEHFLEQQMHPTVVISAYRKALDDMISTLKKISIPVDISDSDMMLNIINSSITTKAISRWSSLACNIALDAVKMVQFEENGRKEIDIKKYARVEKIPGGIIEDSCVLRGVMINKDVTHPRMRRYIKNPRIVLLDSSLEYKKGESQTDIEITREEDFTRILQMEEEYIQQLCEDIIQLKPDVVITEKGISDLAQHYLMRANITAIRRVRKTDNNRIARACGARIVSRPEELREDDVGTGAGLLEIKKIGDEYFTFITDCKDPKACTILLRGASKEILSEVERNLQDAMQVCRNVLLDPQLVPGGGASEMAVAHALTEKSKAMTGVEQWPYRAVAQALEVIPRTLIQNCGASTIRLLTSLRAKHTQENCETWGVNGETGTLVDMKELGIWEPLAVKLQTYKTAVETAVLLLRIDDIVSGHKKKGDDQSRQGGAPDAGQE

- binding: binds
B4: T-complex protein 1 subunit delta isoform a (protein, UniProt P50991-1 1-539)
chain: MPENVAPRSGATAGAAGGRGKGAYQDRDKPAQIRFSNISAAKAVADAIRTSLGPKGMDKMIQDGKGDVTITNDGATILKQMQVLHPAARMLVELSKAQDIEAGDGTTSVVIIAGSLLDSCTKLLQKGIHPTIISESFQKALEKGIEILTDMSRPVELSDRETLLNSATTSLNSKVVSQYSSLLSPMSVNAVMKVIDPATATSVDLRDIKIVKKLGGTIDDCELVEGLVLTQKVSNSGITRVEKAKIGLIQFCLSAPKTDMDNQIVVSDYAQMDRVLREERAYILNLVKQIKKTGCNVLLIQKSILRDALSDLALHFLNKMKIMVIKDIEREDIEFICKTIGTKPVAHIDQFTADMLGSAELAEEVNLNGSGKLLKITGCASPGKTVTIVVRGSNKLVIEEAERSIHDALCVIRCLVKKRALIAGGGAPEIELALRLTEYSRTLSGMESYCVRAFADAMEVIPSTLAENAGLNPISTVTELRNRHAQGEKTAGINVRKGGISNILEELVVQPLLVSVSALTLATETVRSILKIDDVVNTR
